Test results from article PMC8256601.
These are yes or no findings as the source states them, for the method shown. Binding seen in cells or lysates may run through a third protein. Some results given as binding are weak or reduced against the parent protein; the word gives no strength.

Protein sequences, listed by entry. Tags and fused reporters are not part of them. Residues count along the entry.
UniProt Q05941, residues 23-502: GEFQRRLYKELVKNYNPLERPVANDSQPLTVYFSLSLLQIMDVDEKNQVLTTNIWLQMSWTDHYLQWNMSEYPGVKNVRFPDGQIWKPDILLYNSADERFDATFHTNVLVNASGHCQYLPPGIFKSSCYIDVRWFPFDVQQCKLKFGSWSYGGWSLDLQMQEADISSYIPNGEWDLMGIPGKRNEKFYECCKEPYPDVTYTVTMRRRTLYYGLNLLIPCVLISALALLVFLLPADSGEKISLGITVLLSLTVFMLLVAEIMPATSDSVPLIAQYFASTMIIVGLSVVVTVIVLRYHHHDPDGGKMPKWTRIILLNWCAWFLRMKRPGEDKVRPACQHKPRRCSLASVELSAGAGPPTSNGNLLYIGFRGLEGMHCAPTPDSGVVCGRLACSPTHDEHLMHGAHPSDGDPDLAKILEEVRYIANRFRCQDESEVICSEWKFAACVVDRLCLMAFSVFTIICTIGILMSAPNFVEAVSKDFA

Tests used:
[1] = target: α7 nicotinic acetylcholine receptor (rat (endogenous in rat brain)) (UniProt Q05941); test: co-IP; anti-α7nAChR antibody with protein A/G plus agarose overnight at 4 °C, blot for NR2A; striatal lysate of rats injected i.c.v. with TAT or TAT-α7-peptide; lysis buffer 50 mM Tris, 150 mM NaCl, 2 mM EDTA, 1% NP-40, 0.5% sodium deoxycholate, pH 7.4; control IgG
[2] = target: α7 nicotinic acetylcholine receptor (rat (endogenous in rat brain)) (UniProt Q05941); test: co-IP; anti-α7nAChR antibody with protein A/G plus agarose overnight at 4 °C, blot for NR2A; hippocampal lysate of rats injected i.c.v. with TAT or TAT-α7-peptide; lysis buffer 50 mM Tris, 150 mM NaCl, 2 mM EDTA, 1% NP-40, 0.5% sodium deoxycholate, pH 7.4; control IgG

“NR2A subunit of the NMDA receptor (from UniProt Q00959 23-1464)” was tested, and the binding [1] was “binds” and the binding [2] was “binds”.
